Reference: article doi:10.1101/2022.12.06.519316
These are yes or no findings as the source states them, for the method shown. For part of these data: Binding seen in cells or lysates may run through a third protein. Some entries that bind do so weakly or less than the wild type. For part of these data: Tags and fused reporters may be left off the sequences shown.

Chains of the proteins cited; added tags and fusions are not shown. Lines headed by an entry give the natural chain unless they say otherwise; changes in a name come on top. Residues count along the entry.
UniProt Q96LA9, residues 2-322: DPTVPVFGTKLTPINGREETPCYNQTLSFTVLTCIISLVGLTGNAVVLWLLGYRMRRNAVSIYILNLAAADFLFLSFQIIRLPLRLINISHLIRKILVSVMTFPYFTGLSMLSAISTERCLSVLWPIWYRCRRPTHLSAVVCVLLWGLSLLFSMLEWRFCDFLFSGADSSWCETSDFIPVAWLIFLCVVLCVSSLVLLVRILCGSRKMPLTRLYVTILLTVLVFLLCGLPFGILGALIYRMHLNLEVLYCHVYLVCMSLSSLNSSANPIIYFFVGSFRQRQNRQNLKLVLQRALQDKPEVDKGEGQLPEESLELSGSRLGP
UniProt Q16602: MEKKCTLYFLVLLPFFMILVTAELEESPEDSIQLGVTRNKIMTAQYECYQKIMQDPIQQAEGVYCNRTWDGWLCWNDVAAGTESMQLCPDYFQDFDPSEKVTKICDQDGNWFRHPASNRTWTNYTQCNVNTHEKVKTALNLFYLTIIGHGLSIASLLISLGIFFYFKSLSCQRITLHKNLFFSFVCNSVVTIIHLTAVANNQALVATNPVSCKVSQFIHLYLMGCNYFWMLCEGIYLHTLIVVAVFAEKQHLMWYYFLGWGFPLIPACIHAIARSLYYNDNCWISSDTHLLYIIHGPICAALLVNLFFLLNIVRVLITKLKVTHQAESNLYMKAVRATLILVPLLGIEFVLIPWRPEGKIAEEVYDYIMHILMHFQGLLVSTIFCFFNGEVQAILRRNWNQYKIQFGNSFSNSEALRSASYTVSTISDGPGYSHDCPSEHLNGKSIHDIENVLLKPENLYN
UniProt O60895, residues 43-175: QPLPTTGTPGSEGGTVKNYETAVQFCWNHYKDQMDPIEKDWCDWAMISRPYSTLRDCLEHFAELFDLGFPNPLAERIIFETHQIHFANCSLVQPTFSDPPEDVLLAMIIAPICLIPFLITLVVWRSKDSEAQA
UniProt P49407: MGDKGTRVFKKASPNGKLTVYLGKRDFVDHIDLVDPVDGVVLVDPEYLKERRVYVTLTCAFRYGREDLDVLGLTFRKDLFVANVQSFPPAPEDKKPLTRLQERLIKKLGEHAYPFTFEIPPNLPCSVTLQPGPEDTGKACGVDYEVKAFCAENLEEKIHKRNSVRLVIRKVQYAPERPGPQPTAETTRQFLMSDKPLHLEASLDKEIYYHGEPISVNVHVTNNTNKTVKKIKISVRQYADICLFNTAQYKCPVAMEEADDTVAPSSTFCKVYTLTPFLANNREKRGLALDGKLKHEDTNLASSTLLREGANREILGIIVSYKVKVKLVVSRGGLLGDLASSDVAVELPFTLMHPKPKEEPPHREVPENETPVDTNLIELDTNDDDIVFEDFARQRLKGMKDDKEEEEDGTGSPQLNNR
UniProt P32121: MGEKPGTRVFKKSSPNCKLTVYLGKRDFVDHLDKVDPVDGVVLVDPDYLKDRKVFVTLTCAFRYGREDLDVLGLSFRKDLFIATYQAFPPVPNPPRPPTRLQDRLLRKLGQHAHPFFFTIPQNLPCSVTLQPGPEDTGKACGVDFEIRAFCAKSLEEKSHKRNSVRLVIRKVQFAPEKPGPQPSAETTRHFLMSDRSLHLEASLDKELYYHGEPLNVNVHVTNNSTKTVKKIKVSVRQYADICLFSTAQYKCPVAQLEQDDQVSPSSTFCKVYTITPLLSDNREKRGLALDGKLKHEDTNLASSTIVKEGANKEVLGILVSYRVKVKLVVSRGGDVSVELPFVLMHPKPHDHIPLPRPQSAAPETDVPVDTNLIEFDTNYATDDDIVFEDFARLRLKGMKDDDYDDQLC

How the values were obtained:
[1] = target: FLAG-MRGPRX4-GFP10-1D4 (human) (UniProt Q96LA9); experiment: proximity ligation
[2] = target: HA-MRGPRX4-1D4 (Mas-related GPCR subtype X4, dual epitope-tagged) (human) (UniProt Q96LA9); experiment: multiplexed suspension bead array
[3] = target: CALCRL in complex with RAMP2 (calcitonin receptor-like receptor co-expressed with RAMP2) (human) (UniProt Q16602+O60895); experiment: FRET or BRET

binding [1] | binding [2] | binding [3] | Molecule
 |  | binds | β-arrestin1-RLuc3 (from UniProt P49407 1-418)
 |  | binds | β-arrestin2-RLuc3 (from UniProt P32121 1-409)
binds |  |  | 3xHA-RAMP3-OLLAS (protein, UniProt O60896 28-148) CNETGMLERLPLCGKAFADMMGKVDVWKWCNLSEFIVYYESFTNCTEMEANVVGCYWPNPLAQGFITGIHRQFFSNCTVDRVHLEDPPDEVLIPLIVIPVVLTVAMAGLVVWRSKRTDTLL

Continued, molecule first:

Molecule | binding [1] | binding [2] | binding [3]
3xHA-RAMP2-OLLAS (from UniProt O60895 43-175) | binds |  | 
FLAG-RAMP2-OLLAS (receptor activity-modifying protein 2) (from UniProt O60895 43-175) |  | binds | 
FLAG-RAMP3-OLLAS (receptor activity-modifying protein 3) (protein, UniProt O60896 28-148) CNETGMLERLPLCGKAFADMMGKVDVWKWCNLSEFIVYYESFTNCTEMEANVVGCYWPNPLAQGFITGIHRQFFSNCTVDRVHLEDPPDEVLIPLIVIPVVLTVAMAGLVVWRSKRTDTLL |  | binds | 
